# According to paper PMC8760688:
# Sequences of proteins named here, by UniProt entry; tags and fusion partners are left off.
# UniProt P51858: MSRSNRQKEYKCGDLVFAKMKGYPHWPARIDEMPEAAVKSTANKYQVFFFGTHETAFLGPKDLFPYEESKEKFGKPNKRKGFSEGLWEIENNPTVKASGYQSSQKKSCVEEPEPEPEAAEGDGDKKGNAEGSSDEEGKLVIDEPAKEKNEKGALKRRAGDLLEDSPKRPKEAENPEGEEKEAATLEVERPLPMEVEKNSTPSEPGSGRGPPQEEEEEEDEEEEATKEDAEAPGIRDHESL
# UniProt P05412: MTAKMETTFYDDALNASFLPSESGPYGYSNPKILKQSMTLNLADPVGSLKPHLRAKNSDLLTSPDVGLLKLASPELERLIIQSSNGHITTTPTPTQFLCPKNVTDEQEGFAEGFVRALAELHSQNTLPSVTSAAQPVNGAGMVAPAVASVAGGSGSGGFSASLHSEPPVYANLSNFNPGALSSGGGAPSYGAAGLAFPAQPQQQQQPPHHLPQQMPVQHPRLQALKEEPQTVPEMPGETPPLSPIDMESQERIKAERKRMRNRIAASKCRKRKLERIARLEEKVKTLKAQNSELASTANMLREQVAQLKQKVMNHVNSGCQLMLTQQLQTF
# These are yes or no findings as the source states them, for the method shown. In cells and extracts the contact can be indirect. Some binding calls cover weakened binding; strength is not graded here.
# Biological target: hepatoma-derived growth factor (UniProt P51858)
# Assay: co-IP; Co-IP assay; cells, antibodies and conditions not told in this correction; three independent experiments
substance,measurement,value
c-Jun (from UniProt P05412 1-331),binding,binds
